# About 2,100 (0.66%) of roughly 320,000 compounds were called active. Inconclusive means that the source gave no clear call. Such entries were picked first, then a sample of the others. Calls come from the whole dose curve; as a rule, active = well fitted inhibition curve with a large enough effect in the signal ratio, with a control signal flat (not every such curve was filed as active); inconclusive = small, poorly fitted or top-dose-only effect, or effect the other way, or a change in a side signal; inactive = flat fitted curve, though single readings scatter; the % refers to the signal ratio. Where the call is inconclusive, the potency comes from a doubtful curve fit.
# Test: qHTS Assay for Lipid Storage Modulators in Drosophila S3 Cells
# Settings: BODIPY lipid droplet fluorescence, 18-24 h, cells fed with added oleic acid; lipid storage change, negative = inhibition: at 46.1 µM (top of the series) unless noted
# Outline: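 Drosophila S3 cells got compounds at several concentrations plus oleic acid (400 uM solution). Laser-scanning cytometry with 488 nm excitation read lipid droplets at 500-530 nm and cells at 575-640 nm. Percent activity was relative to 20 uM Triacsin C.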
# % is set by controls: 0 for no effect and ±100 for the full control effect; potency is the fitted concentration of half-maximal effect.
SMILES,Potency,"lipid storage change, negative = inhibition"
CCOC(=O)c1c(C)[nH]c(C(=O)OCC(=O)N2c3ccccc3CC2C)c1C (configuration not stated),"inconclusive: 0.731 µM [activator, full curve, poor fit]",
O=C(O)c1cccc(NC2=C(n3nnc4ccccc43)C(=O)c3ccccc3C2=O)c1,,inconclusive: -5.42%
CCCCCC(=O)Nc1cccc(C2=NOC3(C2)C[C@@H](C(N)=O)N(C(=O)C2(C)CC2)C3)c1 (some centres not stated),,inconclusive: -25.3%
Cc1cccc(Sc2nc(-c3ccccc3)ccc2C#N)c1,,inconclusive: -135%
Cc1cccc(C)c1NC(=O)CSCC(=O)O,,inconclusive: 4.21%
Cc1cccc(N(CC(=O)NC2CCCC2)C(=O)CCCC(=O)Nc2ccccn2)c1,,inconclusive: 9.36%
O=C1c2ccc([N+](=O)[O-])cc2S(=O)(=O)N1Cc1ccccc1,,inconclusive: -22.3%
CCCCC(CC)COP(=O)(OCC(CC)CCCC)OCC(CC)CCCC (configuration not stated),,inconclusive: 12.2%
COC(=O)C(C(=O)NCC1CCCO1)C1CCCC1 (configuration not stated),"inconclusive: 4.61 µM [falling, single point]",
COc1ccc(NC(=O)COC(=O)[C@@H]2CCCN2C(=O)c2cccs2)c(OC)c1,,inactive
CCCn1c(=O)c(C(=O)NNC(=O)c2ccccc2Cl)c(O)c2ccccc21,,inconclusive: -34.8%
Cc1cccc(C)c1NC(=O)CSc1nnc(CCCCCNC(=O)OC(C)(C)C)o1,"inconclusive: 0.82 µM [activator, full curve, poor fit]",
Cc1c(Cl)c([N+](=O)[O-])nn1CCCC(=O)Nc1sc2c(c1C(N)=O)CCC(C)C2 (configuration not stated),,inconclusive: 29.4%
CCCCNC(=O)c1onc(CSc2ccc(F)cc2)c1C(=O)NCCCC,,inconclusive: 14.6%
O=C(CCc1ccc(S(=O)(=O)NCc2ccccc2)cc1)NCc1ccc2c(c1)OCO2,"inconclusive: 6.51 µM [activator, single point]",
CC(=O)NS(=O)(=O)c1ccc(NC(=O)c2cc(-c3ccc(C)cc3)nc3ccccc23)cc1,,inactive
COC(=O)c1c(NC(=O)CSc2nncs2)sc2c1CCCCC2,,inconclusive: 14.9%
Cc1ccc(O)c(C(CC(=O)NC(C)C)c2ccccc2)c1 (configuration not stated),,inconclusive: -17.9%
CCc1cc(=O)oc2cc(OCC(=O)NCCCn3ccnc3)ccc12,"inconclusive: 13 µM [activator, partial curve]",
COc1ccc(NC(=O)C(NC(=O)c2ccc(C)cc2)c2ccccc2)cc1 (configuration not stated),"inconclusive: 29.1 µM [activator, partial curve, poor fit]",
O=C(CSc1nnnn1-c1ccccc1)CC(=O)Nc1ccc(Cl)cc1,,inconclusive: 21.6%
CCOC(=O)c1c(NC(=O)C(C)N2CCN(S(=O)(=O)c3cccs3)CC2)sc2c1CCC(C)C2 (configuration not stated),"inconclusive: 6.51 µM [rising, partial curve, poor fit]",
Cc1c(C)c2ccc(OCC(=O)N3CCN(C(=O)C4COc5ccccc5O4)CC3)cc2oc1=O (configuration not stated),,inconclusive: -101%
Cn1c(SCC(=O)NCc2ccco2)nnc1-c1ccc(S(=O)(=O)N2CCOCC2)cc1,active: 5.8 µM,
COc1ccc2oc(C(=O)OCC(=O)N3CCN(C(C)=O)CC3)c(C)c2c1,,inconclusive
CC(C)C[C@@H](C(=O)NCc1ccco1)N1C(=O)N2CCc3c([nH]c4ccccc34)[C@@]2(C)C1=O,"inconclusive: 1.3 µM [falling, partial curve]",

SMILES,Potency,"lipid storage change, negative = inhibition"
COc1ccc(C(=O)Nc2cccc(NC(C)=O)c2)cc1OC,,inconclusive: 15.7%
CCOc1ccccc1NC(=O)C1CC2CCCC(C1)C2=O (configuration not stated),"inconclusive: 23.1 µM [falling, partial curve, poor fit]",
CSc1ccccc1C(=O)Nc1nc2ccccc2[nH]1,,inconclusive: 13.5%
O=S(=O)(c1cccs1)N1CCN(CC(O)COC2CCCc3ccccc32)CC1 (configuration not stated),,inconclusive: 18.7%
CCOc1cc(C2C(C(=O)OC)=C(C)N=C3SC(C)C(=O)N32)ccc1OC(C)=O (configuration not stated),,inconclusive: 5.05%
Cc1csc(NC(=O)CSc2nnc(-c3ccncc3)o2)n1,"inconclusive: 13 µM [activator, partial curve]",
CN(c1ccc(C(=O)N2CCCCC2)cc1)S(C)(=O)=O,,inconclusive: 36.9%
Cc1ccc(C)c(NC(=O)CN(C)C(=O)c2ccc(S(=O)(=O)N3CCCCCC3)cc2)c1,"inconclusive: 29.1 µM [falling, single point]",
Cc1ccc(C)c(OCCn2c(=O)c3c(ncn3C3CCCC3)n(Cc3ccccc3)c2=O)c1,,inconclusive: -6.48%
N#CC1(NC(=O)COC(=O)Cc2n[nH]c(=O)c3ccccc23)CCCCC1,,inconclusive
COc1cccc(C(=O)N2CCN(C(=O)COc3ccc4ccccc4c3)CC2)c1,,inconclusive: 57.6%
C=C(C)COc1ccc(-c2ncnc(C(F)(F)F)c2-c2ccccc2)c(O)c1,"inconclusive: 20.6 µM [activator, partial curve]",
Cc1cccc(C(=O)NCC(=O)NNC(=O)c2ccccc2O)c1,,inconclusive: -16.3%
Cc1ccc(N(CC(=O)O)S(C)(=O)=O)cc1Cl,"inconclusive: 0.0366 µM [activator, single point]",
COc1ccc(S(=O)(=O)N2CCC(O)(c3ccc(Cl)cc3)CC2)cc1,,inconclusive: 11%
COc1cc(C(=O)Nc2ccccc2N2CCCCC2)cc(OC)c1OC,,inconclusive: 13.1%
Cc1nc2ccc3nc(NC(=O)C4COc5ccccc5O4)sc3c2s1 (configuration not stated),,inconclusive: -8.31%
COc1cc(/C=N/NC(=O)c2cc(-c3cccn3C)n[nH]2)cc(OC)c1OC,,inconclusive: -59.7%
CCC(=O)C1CCCN(C(=O)CCc2nnc(-c3ccc(C(C)=O)s3)o2)C1 (configuration not stated),"inconclusive: 29.1 µM [falling, single point]",
COC(=O)c1c(C)[nH]c(O)c1C=Nc1ccc(Oc2ccccc2)cc1,,inconclusive: 24%
CCCOC(=O)COC(=O)c1ccccc1NC(=O)c1ccccc1,"inconclusive: 2.91 µM [activator, full curve]",
O=S(=O)(Cc1ccc(Cl)cc1)NCC1CCCO1 (configuration not stated),,inconclusive: -2.94%
CC1(C)OC(=O)N(c2cccnc2)C1(C)O (configuration not stated),"inconclusive: 32.6 µM [falling, single point]",
CCOc1ccc(-n2nnnc2SCC(=O)Nc2ccc(NC(C)=O)cc2)cc1,,inconclusive: -1.8%
CCCCCCCC(=O)N/N=C/c1ccc([N+](=O)[O-])o1,,inactive
Cc1csc(=O)n1CC(=O)OCC(=O)c1c(N)n(C)c(=O)n(C)c1=O,,inconclusive

SMILES,Potency,"lipid storage change, negative = inhibition"
Clc1ccc(SCCCCn2cncn2)cc1,,inconclusive: 53.3%
Cc1cc(C)n2nc(C(=O)OCC(=O)N(C)Cc3ccccc3)nc2n1,,inconclusive
Cc1cccc(NC(=O)CSc2nccn2Cc2ccco2)c1,,inconclusive: -6.29%
COc1ccc(CN(C)C(=O)CNC(=O)c2ccc(C)cc2)cc1,,inconclusive: -125%
CS(=O)(=O)c1ccc(Cl)c(NC(=O)c2cc(=O)[nH]c3ccc(S(=O)(=O)N4CCOCC4)cc23)c1,,inconclusive: -15.3%
CN(C)S(=O)(=O)c1ccc2nnn(OCC(=O)NC3CCS(=O)(=O)C3)c2c1 (configuration not stated),,inconclusive: 13.8%
Clc1ccc(/C=C/c2ncc[nH]2)c(Cl)c1,,inconclusive: 12.6%
CCOC(=O)CSc1nc2ccccc2c(=O)n1CC1CCCO1 (configuration not stated),,inactive
O=C1CC(Nc2ccc(N3CCOCC3)cc2)C(=O)N1c1ccccc1 (configuration not stated),,inconclusive: 22.2%
O=C(Nc1ccccc1Cl)C1CCCN(c2ncnc3c2nc2n3CCCCC2)C1 (configuration not stated),,inconclusive: -179%
Cc1nc2cc(Cl)ccc2n1CCO,,inconclusive: -0.192%
CCOC(=O)c1c(C)nc2ccccn12,,inconclusive: 14.5%
COc1ccc(NC(=O)CC2C(=O)N(c3ccc(OC)cc3)C(=O)N2Cc2ccc(OC)c(OC)c2)cc1 (configuration not stated),,inconclusive: -19.9%
CC(=O)c1c(C)[nH]c(C(=O)OCC(=O)c2c[nH]c3ccccc23)c1C,,inconclusive: -18.7%
O=C(CSc1nc2ccccc2c(=O)[nH]1)Nc1ccc(N2CCOCC2)c(Cl)c1,"inconclusive: 29.1 µM [falling, single point]",
CCCc1cc(=O)oc2cc(C)cc(OCC(=O)NCCCN3CCOCC3)c12,"inconclusive: 25.9 µM [activator, single point]",
COc1cc(OC)cc(C(=O)NC(C(=O)OCn2nnc3ccccc3c2=O)C(C)C)c1 (configuration not stated),,inconclusive: 97.6%
O=C(CNC(=O)c1ccccc1)N/N=C/c1cn[nH]c1-c1ccccc1,,inconclusive: -1.56%
CN(C)S(=O)(=O)c1cccc(NC(=O)c2cccc(S(=O)(=O)N3CCCCCC3)c2)c1,"inconclusive: 6.51 µM [falling, single point]",
O=S(=O)(c1ccc2c(c1)OCCO2)N1CCN(c2nc3ccccc3s2)CC1,,inconclusive: 15.3%
O=C(c1ccc(Cl)nc1)N1CCC(Cc2ccccc2)CC1,,inconclusive: 34.1%
O=C(N=c1ccn(-c2nc3ccccc3nc2NS(=O)(=O)c2ccc(Cl)cc2)cc1)c1ccccc1Cl,,inconclusive: -7.3%
O=C(Nc1nc(-c2ccccc2)nc2ccccc12)c1ccc(F)cc1,,inconclusive: -0.806%
CCc1ccccc1OCC(=O)Nc1ccc(S(N)(=O)=O)cc1,"inconclusive: 7.31 µM [activator, partial curve]",
CC(=O)O/N=C/c1c(N2CCOCC2)n(C)c2ccccc12,,inconclusive: 17.5%

# Already shown: entries from further up.
SMILES,Potency,"lipid storage change, negative = inhibition"
Cc1nc2cc(Cl)ccc2n1CCO,,inconclusive: -0.192%
CCOC(=O)c1c(C)nc2ccccn12,,inconclusive: 14.5%
COc1ccc(NC(=O)CC2C(=O)N(c3ccc(OC)cc3)C(=O)N2Cc2ccc(OC)c(OC)c2)cc1 (configuration not stated),,inconclusive: -19.9%
CC(=O)c1c(C)[nH]c(C(=O)OCC(=O)c2c[nH]c3ccccc23)c1C,,inconclusive: -18.7%
O=C(CSc1nc2ccccc2c(=O)[nH]1)Nc1ccc(N2CCOCC2)c(Cl)c1,"inconclusive: 29.1 µM [falling, single point]",
CCCc1cc(=O)oc2cc(C)cc(OCC(=O)NCCCN3CCOCC3)c12,"inconclusive: 25.9 µM [activator, single point]",
COc1cc(OC)cc(C(=O)NC(C(=O)OCn2nnc3ccccc3c2=O)C(C)C)c1 (configuration not stated),,inconclusive: 97.6%
O=C(CNC(=O)c1ccccc1)N/N=C/c1cn[nH]c1-c1ccccc1,,inconclusive: -1.56%
CN(C)S(=O)(=O)c1cccc(NC(=O)c2cccc(S(=O)(=O)N3CCCCCC3)c2)c1,"inconclusive: 6.51 µM [falling, single point]",
O=S(=O)(c1ccc2c(c1)OCCO2)N1CCN(c2nc3ccccc3s2)CC1,,inconclusive: 15.3%
O=C(c1ccc(Cl)nc1)N1CCC(Cc2ccccc2)CC1,,inconclusive: 34.1%
O=C(N=c1ccn(-c2nc3ccccc3nc2NS(=O)(=O)c2ccc(Cl)cc2)cc1)c1ccccc1Cl,,inconclusive: -7.3%
O=C(Nc1nc(-c2ccccc2)nc2ccccc12)c1ccc(F)cc1,,inconclusive: -0.806%
CCc1ccccc1OCC(=O)Nc1ccc(S(N)(=O)=O)cc1,"inconclusive: 7.31 µM [activator, partial curve]",

# — PubChem BioAssay AID2685 (National Center for Advancing Translational Sciences (NCATS), 2010)
